Source: the supplement of paper PMC3334620
The full ranking holds about 33,000 sequences; the median of “E-score (-0.5 to 0.5)” is about -0.0014, and the highest 2% start at about 0.25. The list shows a part of the results.

biological target: T1, Cad1 (UniProt P24813); assay: PBM E-score (8-mer binding enrichment) (E-score (-0.5 to 0.5)); higher = stronger / more preferred TF binding; details: protein concentration: 100 nM; construct: GST-full length
T1 sequence: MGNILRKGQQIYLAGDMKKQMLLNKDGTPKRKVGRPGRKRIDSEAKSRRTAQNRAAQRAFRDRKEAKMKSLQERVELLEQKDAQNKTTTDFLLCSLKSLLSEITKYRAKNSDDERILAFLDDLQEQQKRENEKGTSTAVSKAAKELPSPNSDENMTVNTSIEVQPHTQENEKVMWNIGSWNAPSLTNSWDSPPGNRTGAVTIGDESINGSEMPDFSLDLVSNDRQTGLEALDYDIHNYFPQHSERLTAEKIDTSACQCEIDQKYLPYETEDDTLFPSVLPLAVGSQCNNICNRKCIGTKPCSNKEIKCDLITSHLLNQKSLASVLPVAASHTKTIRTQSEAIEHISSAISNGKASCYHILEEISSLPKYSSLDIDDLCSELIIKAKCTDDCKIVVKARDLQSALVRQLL
Procedure, shortened: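 The E-score, a modified Wilcoxon-Mann-Whitney statistic, was computed by the Universal PBM Analysis Suite for every ungapped eight-base word pooled with its reverse complement. Scans behind it were normalised with masliner after bound GST-tagged yeast transcription factors were detected with fluorescent anti-GST. The proteins, at about 100-200 nM, had been applied to universal all-10-mer Agilent arrays made double-stranded by primer extension.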

| Sequence | PBM E-score |
| --- | --- |
| CCCAAGGG | -0.395 |
| GTGACGAA | 0.0988 |
| ACCGGGAC | -0.073 |
| AATAAGAG | 0.0662 |
| AGTCCGAA | -0.0964 |
| ATAGTTGG | -0.00716 |
| CCTTGCAA | -0.097 |
| GCTGTGAA | 0.0992 |
| TGCGTAAA | 0.0705 |
| TATGCTCA | 0.0318 |
| ATGTCCAA | 0.00741 |
| AGTAGTCG | 0.152 |
| ATTCAAAC | 0.073 |
| ACGGGAGA | -0.143 |
| CCCAACCA | -0.0542 |
| ACAGGTTA | -0.015 |
| ATCTTGTA | -0.0635 |
| TACGGACA | 0.154 |
| AGAATGTC | -0.102 |
| GACAGTGA | 0.0252 |
| TAAGCCAA | 0.109 |
| TACACGCA | -0.123 |
| ACACAATA | 0.0881 |
| GAAAGCGA | 0.0779 |
| AACTGCTA | -0.0703 |

| Sequence | PBM E-score |
| --- | --- |
| CCCAAAGA | -0.0725 |
| CAGGTGTC | 0.0539 |
| AGCCTCTG | -0.281 |
| ACATCCAT | -0.0237 |
| GATCTAGA | -0.00886 |
| AACTAAGA | -0.00681 |
| AGATTTCA | -0.0418 |
| TATTAAGA | 0.0149 |
| GTATTTGA | 0.00258 |
| ATCTATTC | 0.0621 |
| GGAGCGAA | -0.0168 |
| ATGGCATC | 0.0656 |
| CGGTACGC | 0.0976 |
| GGGTCACA | -0.233 |
| GGGCAGTA | -0.0606 |
| CCTGTTCC | -0.0993 |
| CGTCGCAC | -0.0397 |
| ACGGGATG | 0.0427 |
| TCGAAGCA | -0.0922 |
| CGCCATAA | 0.0576 |
| GAGAACAC | 0.15 |
| GAACCACA | 0.154 |
| GACGTGAC | -0.0386 |
| CGGACGTC | 0.026 |
| ACCCAGAT | 0.0101 |

| Sequence | PBM E-score |
| --- | --- |
| ATAAGTCC | 0.0997 |
| ACACACCA | 0.198 |
| GTAGACGA | -0.103 |
| CCTACGCC | -0.297 |
| AGAGCGAG | -0.0569 |
| ATCACGCC | -0.0305 |
| GACCAACA | 0.201 |
| ATAGAAGA | -0.136 |
| ACATAGGT | 0.0292 |
| GCATCATA | 0.296 |
| GAAAGTAC | -0.0278 |
| AGAGCCCC | -0.35 |
| CCACATAC | 0.0512 |
| ACACTTGA | -0.0504 |
| TCATAGAA | 0.206 |
| GACGATAC | 0.00972 |
| AATTTAAT | 0.252 |
| GCGAGAGC | -0.00302 |
| AGACAATA | 0.0599 |
| ACCGCTAA | 0.212 |
| CATTATCA | 0.19 |
| AGCGAAAG | -0.172 |
| TAGTATGA | 0.162 |
| CGAAAGAG | 0.0669 |
| GCAAATGA | -0.0799 |

As a working copy, some entries already given:

| Sequence | PBM E-score |
| --- | --- |
| ATGGCATC | 0.0656 |
| CGGTACGC | 0.0976 |
| GGGTCACA | -0.233 |
| GGGCAGTA | -0.0606 |
| CCTGTTCC | -0.0993 |

Carrying on:

| Sequence | PBM E-score |
| --- | --- |
| CAAATGCA | 0.113 |
| AATTTGCT | 0.0891 |
| ATATTGGA | -0.111 |
| TCAGGAAA | 0.0803 |
| CTCGGTCA | -0.0426 |
| AAGTGATC | -0.0506 |
| CCGAGCCA | -0.0105 |
| ACCCGGGG | -0.19 |
| TAGTGGGA | -0.225 |
| GATTACGC | 0.182 |
| ACAAGTCA | -0.114 |
| AGATGCTA | -0.091 |
| ACACGTGG | 0.0688 |
| ATGACAGG | 0.00398 |
| AAATGCAT | 0.198 |
| CTGTCGGA | 0.101 |
| AACATGGG | -0.00868 |
| GGCATAAC | 0.0911 |
| TGCAGGCA | -0.0106 |
| TACAGTGA | 0.0738 |
| CCAATCGC | 0.0869 |
| AGCAAGGC | -0.112 |
| TCCAGCCA | -0.105 |
| ACCCTTGG | -0.251 |
| ACCTGGAG | -0.099 |

| Sequence | PBM E-score |
| --- | --- |
| TACTGCAA | -0.00783 |
| ATTACGTC | 0.118 |
| CGCATAAC | 0.0795 |
| AACTTGCT | -0.105 |
| TATTCCGA | 0.176 |
| CACGATTC | 0.0636 |
| AACAAGGC | 0.00964 |
| GACTTCCC | -0.145 |
| CGAAACAC | 0.188 |
| GCTCGACA | -0.0745 |
| CAGGCCTC | -0.226 |
| GGACGGGA | -0.181 |
| GAGTAAGA | 0.111 |
| GCTTAACC | -0.0586 |
| AACCACTA | -0.028 |
| ACGATCGA | 0.254 |
| AGTGCAGC | 0.101 |
| ATCACGGC | 0.126 |
| GTTCCTGA | -0.0824 |
| AATATGAT | 0.247 |
| AGTGACGC | -0.104 |
| CGCTTTTA | 0.0966 |
| CTAGAGGC | -0.226 |
| GTGCCGGA | 0.0729 |
| CCGTCTCG | 0.0704 |

| Sequence | PBM E-score |
| --- | --- |
| CCATAGCG | -0.00195 |
| ATTGTCCG | 0.271 |
| AATTGCCA | 0.124 |
| GGTACAAA | -0.0202 |
| CTCGATGA | 0.00953 |
| AACACCTC | -0.0988 |
| CGCATCGA | 0.023 |
| AGCCAGCT | 0.0239 |
| TATCACCA | 0.0661 |
| AATGCCGT | 0.107 |
| AGGACGAA | 0.0126 |
| CTCGCCCA | -0.0333 |
| TAAAGCAA | 0.161 |
| CATTGCAA | -0.0981 |
| AGCCTTCA | 0.0108 |
| CTAGTGAC | -0.0382 |
| TGCAGCCA | 0.0846 |
| CATGAGCC | -0.137 |
| ATTGGGGA | -0.233 |
| AATCACTA | 0.121 |
| CGCAGTAG | -0.0245 |
| GAACCTAA | 0.0369 |
| GGAGGGAA | -0.0505 |
| CGCCAAAC | -0.0518 |
| GGCGATCA | -0.165 |

| Sequence | PBM E-score |
| --- | --- |
| CCTATACC | -0.224 |
| AGATTGGA | -0.0081 |
| CAGACAGG | -0.16 |
| AATACAAA | 0.201 |
| ACGCGGTG | -0.019 |
| GAAGATGC | -0.223 |
| CCGATATC | 0.222 |
| AAGGGCTG | -0.304 |
| AATGGTGA | -0.129 |
| GCCATAGA | -0.158 |
| AGAAATAA | 0.206 |
| AATCTTAA | 0.0955 |
| CGGCGAAA | 0.199 |
| AGACTTAA | -0.0384 |
| CGGGCTGA | -0.0677 |
| ATCCGGAG | 0.19 |
| CGCCTGTA | -0.0217 |
| AATAAATG | 0.0809 |
| AAACAATG | 0.16 |
| ACATGCAT | 0.124 |
| GTGGATGA | 0.0866 |
| CCCACCGG | -0.278 |
